Laboratory results from PubChem BioAssay AID328 (DTP/NCI, 2004).
The list does not hold the whole screen: it gathers tests that were run many times, whatever their T/C, doses with no T/C, and many T/C values between a quarter and a half above the control. Other doses and runs of a compound stand elsewhere. T/C gives the treated animals as a percentage of the vehicle group. Some entries give survivors of the animals treated and no T/C: the source files T/C as zero there, which appears to mark a toxic dose or a test without result, not a measured value. Some doses without a T/C left all or most animals alive at the check, yet need not have been tolerated: the source hardly ever lists a survival T/C far under the control, and the zero likely stands for such cases as well. Counts of survivors are from the toxicity check (mostly the fifth day) where no day follows; animals may have died later. Schedules are NCI's codes, read here as Q, the interval in days (D) or hours (H), X, the number of doses. Some entries hold several experiments; the values are given in rising order. For survival time, this PubChem deposit counts one and a half times the control or more as active, and values a quarter to a half above the control carry no call in these data; other NCI protocols may use other cut-offs. Some T/C values carry the count of animals alive at the toxicity check (mostly the fifth day); where none is given, no animal had died by that day. Counts like (3×) say how often a value occurs here.

System: BDF1 mice, P388 leukemia ip, median survival T/C
Assay: NCI In Vivo Anticancer Drug Screen. Data for tumor model P388 Leukemia (intraperitoneal) in B6D2F1 (BDF1) mice
Details: T/C endpoint: median survival time, vehicle: Klucel (hydroxypropylcellulose) (HPC), higher T/C = longer survival
Procedure, shortened: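 T/C = treated-group survival ÷ vehicle-control survival; tumour transplanted into mice before dosing.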

[1] = dose: 50.0 mg/kg/injection, schedule: Q01DX009 (ip)
[2] = dose: 100.0 mg/kg/injection, schedule: Q01DX009 (ip)

O=C1CN=C(c2ccc[nH]2)c2cc(Cl)ccc2N1
T/C (dose: 50.0 mg/kg/injection, schedule: Q01DX001 (ip), evaluated on day 30): 88, 93 (2×), 95, 96 (2×), 97, 98, 100 (3×), 101 (3×), 104 (2×), 105, 106, 109 (2×), 111, 112, 114 (2×), 115, 120, 123, 127, 128 % of control
T/C (dose: 50.0 mg/kg/injection, schedule: Q01DX001 (ip), evaluated on day 35): 103 and 107 % of control
survivor count (dose: 50.0 mg/kg/injection, schedule: Q01DX001 (ip)): 3 of 3
T/C (dose: 50.0 mg/kg/injection, schedule: Q01DX005 (ip), evaluated on day 30): 91 [5 of 6 alive], 92 (3×), 99, 100 (2×), 103, 104 (2×), 105 (3×), 106, 108 (2×), 109, 110, 111, 112 (3×), 113, 115 (2×), 117, 118, 120, 121, 122, 123, 128 % of control
T/C (dose: 50.0 mg/kg/injection, schedule: Q01DX005 (ip), evaluated on day 35): 99 % of control
survivor count (dose: 50.0 mg/kg/injection, schedule: Q01DX005 (ip)): 3 of 3 and 6 of 6
T/C [1]: 86 [5 of 6 alive], 88, 94, 98, 100 (2×), 102 (2×), 103 (2×), 104 (2×), 106, 107 (3×), 108 [5 of 6 alive], 109 (3×), 111, 117 (2×), 124, 125, 126, 127, 134, 144, 145 % of control (3×)
survivor count [1]: 3 of 3 and 6 of 6
T/C (dose: 50.0 mg/kg/injection, schedule: Q04DX002 (ip), evaluated on day 30): 91, 93, 97, 98 (2×), 100 (3×), 101, 102 (3×), 103, 105 (2×), 107 (4×), 109, 110, 112 (3×), 113, 114, 116, 117, 121, 127, 128 % of control
T/C (dose: 50.0 mg/kg/injection, schedule: Q04DX002 (ip), evaluated on day 35): 103 % of control
survivor count (dose: 50.0 mg/kg/injection, schedule: Q04DX002 (ip)): 3 of 3 and 6 of 6
T/C (dose: 50.0 mg/kg/injection, schedule: Q04DX003 (ip), evaluated on day 30): 87, 90, 97, 98 (2×), 100 (2×), 101, 102, 103 (4×), 104, 105 [2 of 3 alive], 106, 108, 109 (4×), 110 (2×), 111, 112 (2×), 113 (2×), 116, 122, 128 % of control
T/C (dose: 50.0 mg/kg/injection, schedule: Q04DX003 (ip), evaluated on day 35): 102 and 118 % of control
survivor count (dose: 50.0 mg/kg/injection, schedule: Q04DX003 (ip)): 4 of 6, 3 of 3, 6 of 6
T/C (dose: 100.0 mg/kg/injection, schedule: Q01DX001 (ip), evaluated on day 30): 90, 93 (2×), 94, 96, 97, 98, 99 [4 of 6 alive], 100 (2×), 101 (2×), 102 (2×), 104 (3×), 105, 106, 107 (2×), 109, 111, 114 (2×), 117 (2×), 119 % of control
T/C (dose: 100.0 mg/kg/injection, schedule: Q01DX001 (ip), evaluated on day 35): 103 and 127 % of control
survivor count (dose: 100.0 mg/kg/injection, schedule: Q01DX001 (ip)): 3 of 3 and 6 of 6
T/C (dose: 100.0 mg/kg/injection, schedule: Q01DX005 (ip), evaluated on day 30): 88, 90, 91, 97, 99, 100 (2×), 107 (2×), 110, 112 (2×), 113 (2×), 114 (2×), 116, 117, 119, 120 (2×), 121 (2×), 122, 123, 125 (2×), 127, 128, 130, 134, 137, 140, 145 % of control
T/C (dose: 100.0 mg/kg/injection, schedule: Q01DX005 (ip), evaluated on day 35): 102 % of control
T/C [2]: 91, 92 [2 of 3 alive], 96, 97, 98 (2×), 100 (2×), 102, 106 (2×), 107, 109, 110, 111, 113, 116, 117, 118 (2×), 120, 122, 125, 126, 127, 129, 133, 135, 145 (2×), 146 % of control
survivor count [2]: 0 of 3 and 6 of 6
T/C (dose: 100.0 mg/kg/injection, schedule: Q04DX002 (ip), evaluated on day 30): 86, 88, 93 (3×), 95 (2×), 97, 99 (3×), 100, 101, 103, 105, 105 [5 of 6 alive], 106, 107, 108 (2×), 109 (3×), 110 (2×), 111 (2×), 112 (3×), 114 (2×), 135 % of control
T/C (dose: 100.0 mg/kg/injection, schedule: Q04DX002 (ip), evaluated on day 35): 106 % of control
T/C (dose: 100.0 mg/kg/injection, schedule: Q04DX003 (ip), evaluated on day 30): 94, 95 (3×), 100 (2×), 101, 104 (3×), 106, 107 (3×), 108, 109 (3×), 112 (2×), 113, 114 (2×), 114 [2 of 3 alive], 115, 118 (2×), 119, 121, 127 % of control
T/C (dose: 100.0 mg/kg/injection, schedule: Q04DX003 (ip), evaluated on day 35): 98 [5 of 6 alive] and 102 % of control
survivor count (dose: 100.0 mg/kg/injection, schedule: Q04DX003 (ip)): 1 of 3, 3 of 3, 6 of 6
T/C (dose: 200.0 mg/kg/injection, schedule: Q01DX001 (ip), evaluated on day 30): 96 (2×), 100 (2×), 102 (2×), 104 (5×), 104 [5 of 6 alive], 106, 107, 108 (3×), 109, 111 [5 of 6 alive], 115, 115 [2 of 3 alive], 117, 118, 123, 125 [2 of 3 alive], 132 % of control (2×)
